A short description of this data set: physchem. The note with it: buffer, pH 7.4.

The structures appear in SMILES notation.

`Cc1cc(/C=C/C#N)cc(C)c1Oc1nc(NC2CCN(Cc3ccc(S(N)(=O)=O)cc3)CC2)nc2ccsc12` displayed a solubility of under 1 µg/mL.

As a reminder, the solubility is how much of the substance goes into solution per volume. Read a high solubility as much dissolved substance.

For the origin of these results see ChEMBL document CHEMBL4732197, “Identification of novel potent HIV-1 inhibitors by exploiting the tolerant regions of the NNRTIs binding pocket” (Eur J Med Chem, 2021).
